Reference: paper PMC6176987, “Correction of cognitive deficits in mouse models of Down syndrome by a pharmacological inhibitor of DYRK1A” (Disease Models & Mechanisms, 2018)

System: Ts65Dn mice brain phosphoproteins
Test: Brain phosphoproteomic analysis, Ts65Dn mice
Type: in vivo, mouse
Conditions: 20 mg/kg daily i.p. 19 days

## O=C1NC(Nc2ccccc2)=N/C1=C\c1ccc2c(c1)OCO2 [L41]
Cerebellum
  Modulated proteins trisomic, L41 vs vehicle: 355
Cortex
  Modulated proteins trisomic, L41 vs vehicle: 228
Hippocampus
  Modulated proteins trisomic, L41 vs vehicle: 253
